Results are given in words; binding and its absence hold for the method and conditions named. Binding seen in cells or lysates may run through a third protein. Some binding calls cover weakened binding; strength is not graded here. For some of these results: Tags and fused reporters may be left off the sequences shown.
Columns and labels:
[1] = biological target: FLAG-TRIM47 (human) (UniProt Q96LD4); assay: co-IP; HEK293T co-transfected with FLAG-TRIM47 and a MYC-tagged partner for 48 h; RIPA lysis; anti-FLAG or anti-MYC antibody overnight at 4 °C, protein A/G magnetic beads 2 h; western blot
[2] = biological target: T1, MYC-CARM1 (human) (UniProt Q86X55); assay: as above
T1 sequence: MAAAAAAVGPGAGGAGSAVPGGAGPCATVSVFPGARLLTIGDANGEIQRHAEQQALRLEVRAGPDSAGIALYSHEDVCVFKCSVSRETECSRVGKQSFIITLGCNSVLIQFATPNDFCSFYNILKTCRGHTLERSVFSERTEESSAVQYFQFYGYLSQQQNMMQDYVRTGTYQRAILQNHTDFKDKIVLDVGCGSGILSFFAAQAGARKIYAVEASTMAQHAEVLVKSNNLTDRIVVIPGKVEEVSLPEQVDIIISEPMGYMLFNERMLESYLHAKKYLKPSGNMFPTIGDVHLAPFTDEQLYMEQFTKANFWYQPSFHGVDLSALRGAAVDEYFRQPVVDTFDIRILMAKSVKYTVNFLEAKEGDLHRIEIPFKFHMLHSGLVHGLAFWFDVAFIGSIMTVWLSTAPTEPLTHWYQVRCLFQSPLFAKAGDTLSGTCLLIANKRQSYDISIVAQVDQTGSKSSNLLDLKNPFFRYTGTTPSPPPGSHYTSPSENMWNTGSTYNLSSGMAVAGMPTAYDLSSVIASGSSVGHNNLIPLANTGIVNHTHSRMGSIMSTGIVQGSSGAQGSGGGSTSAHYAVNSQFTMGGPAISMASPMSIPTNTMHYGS

Sequences of proteins named here, by UniProt entry; tags and fusion partners are left off.
UniProt Q96LD4: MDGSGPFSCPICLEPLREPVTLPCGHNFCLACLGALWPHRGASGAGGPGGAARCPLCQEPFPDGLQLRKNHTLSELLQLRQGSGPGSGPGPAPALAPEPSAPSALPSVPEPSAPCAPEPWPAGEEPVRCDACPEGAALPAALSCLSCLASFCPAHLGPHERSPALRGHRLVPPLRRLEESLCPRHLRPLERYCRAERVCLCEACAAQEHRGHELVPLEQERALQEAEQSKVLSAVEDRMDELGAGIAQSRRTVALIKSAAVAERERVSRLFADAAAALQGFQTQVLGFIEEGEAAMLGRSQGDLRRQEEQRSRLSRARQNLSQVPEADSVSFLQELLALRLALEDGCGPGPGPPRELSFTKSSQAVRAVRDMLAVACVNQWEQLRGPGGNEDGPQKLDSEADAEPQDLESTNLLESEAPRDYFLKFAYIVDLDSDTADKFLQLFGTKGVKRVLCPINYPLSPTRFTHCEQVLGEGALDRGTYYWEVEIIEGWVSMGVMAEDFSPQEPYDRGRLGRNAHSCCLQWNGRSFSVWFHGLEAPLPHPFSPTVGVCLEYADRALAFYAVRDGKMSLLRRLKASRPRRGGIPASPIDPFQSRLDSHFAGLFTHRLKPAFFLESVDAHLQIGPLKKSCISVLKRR
UniProt O95863: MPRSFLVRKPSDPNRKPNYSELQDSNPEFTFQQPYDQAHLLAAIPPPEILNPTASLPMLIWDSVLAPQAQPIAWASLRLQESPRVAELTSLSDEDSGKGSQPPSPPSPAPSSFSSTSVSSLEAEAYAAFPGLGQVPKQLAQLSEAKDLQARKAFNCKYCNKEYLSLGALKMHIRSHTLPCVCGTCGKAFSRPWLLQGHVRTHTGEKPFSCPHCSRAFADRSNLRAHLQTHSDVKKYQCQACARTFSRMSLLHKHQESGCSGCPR
UniProt Q96SW2: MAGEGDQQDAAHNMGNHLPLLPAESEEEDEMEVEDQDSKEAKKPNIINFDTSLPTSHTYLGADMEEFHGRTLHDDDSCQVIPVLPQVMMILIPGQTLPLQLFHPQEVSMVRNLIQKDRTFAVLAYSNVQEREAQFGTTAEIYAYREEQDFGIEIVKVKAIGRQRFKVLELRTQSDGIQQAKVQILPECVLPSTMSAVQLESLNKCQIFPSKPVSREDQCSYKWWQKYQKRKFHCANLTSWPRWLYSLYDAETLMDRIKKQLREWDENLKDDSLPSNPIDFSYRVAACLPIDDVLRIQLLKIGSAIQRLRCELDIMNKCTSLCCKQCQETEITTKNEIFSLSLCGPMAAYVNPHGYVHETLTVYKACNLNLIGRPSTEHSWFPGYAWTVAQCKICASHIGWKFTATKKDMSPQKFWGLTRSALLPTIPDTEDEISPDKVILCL

[3] = biological target: TRIM47 (endogenous, SMMC7721) (human (endogenous in SMMC7721)) (UniProt Q96LD4); assay: co-IP; SMMC7721 cells treated with HY12759 for 8 h; total extracts immunoprecipitated with anti-TRIM47 antibody; blot with anti-CRBN; endogenous proteins

Q: Which binding [1] does the source give for MYC-SNAI1 (from UniProt O95863 1-264) here?
A: binds

Q: Which binding [2] does the source give for FLAG-TRIM47 (from UniProt Q96LD4 1-638) here?
A: binds

Q: Which binding [1] does the source give for MYC-CRBN (from UniProt Q96SW2 1-442) here?
A: binds

Q: “CRBN (endogenous, SMMC7721) (from UniProt Q96SW2 1-442)” was tested. Which binding [3] did it give?
A: binds

— PMC11579460
